Only a part is listed here, and it is no random draw. Calls are pooled over several reports, among them a noisy single-well screen. The list shows a part of the results. The list shows a part of the results.
Columns and labels:
Details in all cases: stereoisomer not certain
[1] = system: T1, 
T1 sequence (whole entry): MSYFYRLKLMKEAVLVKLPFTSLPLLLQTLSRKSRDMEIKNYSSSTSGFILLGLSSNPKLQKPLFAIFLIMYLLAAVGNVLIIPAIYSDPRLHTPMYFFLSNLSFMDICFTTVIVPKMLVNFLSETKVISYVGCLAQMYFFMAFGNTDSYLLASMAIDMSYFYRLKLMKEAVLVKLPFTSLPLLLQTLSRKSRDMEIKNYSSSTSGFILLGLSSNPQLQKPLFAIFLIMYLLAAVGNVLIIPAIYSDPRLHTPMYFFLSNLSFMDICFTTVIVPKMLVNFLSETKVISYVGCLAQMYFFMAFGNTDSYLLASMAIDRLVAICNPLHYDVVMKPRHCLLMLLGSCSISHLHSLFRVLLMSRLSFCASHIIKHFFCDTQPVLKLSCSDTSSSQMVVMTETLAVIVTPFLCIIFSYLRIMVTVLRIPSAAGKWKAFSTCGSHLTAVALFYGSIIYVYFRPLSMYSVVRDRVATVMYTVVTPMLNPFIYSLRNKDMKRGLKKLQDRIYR
Procedure, shortened: (§1)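 Whether a receptor–molecule pair is responsive (active) rests on the original authors' judgment that its measured signal was statistically different from baseline. Pairs without that judgment are non-responsive (inactive). Sources used varied assay methods, commonly transient luciferase assays in mammalian cell lines.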

[2] = system: T2, A0A140T8K4
T2 sequence (whole entry): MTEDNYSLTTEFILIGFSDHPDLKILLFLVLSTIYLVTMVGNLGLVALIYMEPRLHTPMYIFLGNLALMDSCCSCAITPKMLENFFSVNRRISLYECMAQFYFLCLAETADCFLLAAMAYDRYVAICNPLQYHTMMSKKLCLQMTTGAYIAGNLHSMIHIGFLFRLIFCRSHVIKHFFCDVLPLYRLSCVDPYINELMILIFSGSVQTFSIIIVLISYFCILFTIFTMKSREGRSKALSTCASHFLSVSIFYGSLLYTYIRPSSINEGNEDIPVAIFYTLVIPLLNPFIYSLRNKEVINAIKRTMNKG
Procedure, shortened: as §1

[3] = system: T3, A0A1L1SVG7
T3 sequence (whole entry): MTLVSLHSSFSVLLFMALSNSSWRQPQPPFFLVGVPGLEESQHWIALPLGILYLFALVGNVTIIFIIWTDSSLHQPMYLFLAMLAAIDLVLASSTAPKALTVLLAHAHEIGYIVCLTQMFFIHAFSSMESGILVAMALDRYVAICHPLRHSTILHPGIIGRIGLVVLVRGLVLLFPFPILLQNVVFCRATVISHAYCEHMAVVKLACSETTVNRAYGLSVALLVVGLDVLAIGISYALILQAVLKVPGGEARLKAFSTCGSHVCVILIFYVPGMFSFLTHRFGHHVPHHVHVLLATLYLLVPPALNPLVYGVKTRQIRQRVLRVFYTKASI
Procedure, shortened: as §1

[4] = system: T4, O1020
T4 sequence (whole entry): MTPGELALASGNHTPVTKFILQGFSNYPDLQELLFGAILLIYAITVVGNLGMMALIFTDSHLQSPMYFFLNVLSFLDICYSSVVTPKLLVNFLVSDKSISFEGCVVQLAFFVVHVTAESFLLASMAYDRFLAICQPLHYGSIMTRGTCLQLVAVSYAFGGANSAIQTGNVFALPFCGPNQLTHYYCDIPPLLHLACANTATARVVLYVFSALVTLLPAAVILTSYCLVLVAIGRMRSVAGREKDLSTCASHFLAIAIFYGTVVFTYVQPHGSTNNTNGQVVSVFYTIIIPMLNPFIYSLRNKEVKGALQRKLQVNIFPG
Procedure, shortened: as §1

[5] = system: T5, O1052
T5 sequence (whole entry): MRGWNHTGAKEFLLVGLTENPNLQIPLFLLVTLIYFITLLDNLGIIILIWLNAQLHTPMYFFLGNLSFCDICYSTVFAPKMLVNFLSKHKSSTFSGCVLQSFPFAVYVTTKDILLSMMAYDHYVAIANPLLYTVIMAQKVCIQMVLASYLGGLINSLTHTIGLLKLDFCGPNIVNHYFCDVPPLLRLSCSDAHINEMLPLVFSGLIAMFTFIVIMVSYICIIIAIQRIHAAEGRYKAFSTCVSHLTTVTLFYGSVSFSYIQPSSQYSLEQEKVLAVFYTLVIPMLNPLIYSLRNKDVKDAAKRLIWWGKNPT
Procedure, shortened: as §1

[6] = system: T6, O10A2
T6 sequence (whole entry): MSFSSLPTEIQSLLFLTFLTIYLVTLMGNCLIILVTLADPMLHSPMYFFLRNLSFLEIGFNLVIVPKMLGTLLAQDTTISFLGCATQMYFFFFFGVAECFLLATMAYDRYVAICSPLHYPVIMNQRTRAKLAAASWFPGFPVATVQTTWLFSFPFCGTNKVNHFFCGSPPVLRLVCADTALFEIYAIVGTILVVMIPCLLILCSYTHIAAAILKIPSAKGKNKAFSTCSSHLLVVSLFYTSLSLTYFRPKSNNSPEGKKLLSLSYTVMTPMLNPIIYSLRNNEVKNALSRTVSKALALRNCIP
Procedure, shortened: as §1

[7] = system: T7, A0A140T8K0
T7 sequence (whole entry): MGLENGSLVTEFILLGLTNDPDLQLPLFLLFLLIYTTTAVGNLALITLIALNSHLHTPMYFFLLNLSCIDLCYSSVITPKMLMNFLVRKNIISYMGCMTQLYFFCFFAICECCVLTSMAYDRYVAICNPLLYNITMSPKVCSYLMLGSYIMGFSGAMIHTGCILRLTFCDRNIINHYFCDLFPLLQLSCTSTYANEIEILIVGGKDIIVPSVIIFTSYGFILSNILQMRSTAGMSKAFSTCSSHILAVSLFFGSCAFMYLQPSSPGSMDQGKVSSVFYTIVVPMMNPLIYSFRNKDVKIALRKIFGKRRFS
Procedure, shortened: as §1

[8] = system: A0A2J8MY22
Procedure, shortened: as §1

[9] = system: A0A2R8ZIW4
Procedure, shortened: as §1

[10] = system: A0A3Q7SVK8
Procedure, shortened: as §1

[11] = system: A0A6P3DZI2
Procedure, shortened: as §1

[12] = system: A0A6P6H1F7
Procedure, shortened: as §1

Measured: odorant receptor agonist call;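 note: active if original authors judged signal statistically different from baseline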

CC12CCC(C1)C(C)(C)C2=O (stereo not drawn)
inactive: [1] | [2] | [3] | [4] | [5] | [6]

CC(=O)c1ccccc1
inactive: [1] | [7] | [2] | [3] | [4] | [5] | [6]

CCCCO
inactive: [1] | [7] | [4] | [5] | [6]

CC(C)=CCCC(C)=CC=O
inactive: [1] | [7] | [4] | [5] | [6]

CC(=O)C(C)=O
inactive: [1] | [7] | [4] | [5] | [6]

CCCCCC(C)=O
inactive: [1] | [7] | [2] | [3] | [4] | [5] | [6]

COc1cc(C=O)ccc1O
inactive: [1] | [7] | [4] | [5] | [6]

O=C1CCCCC1
inactive: [1] | [2] | [3] | [4] | [5] | [6]

CC12CCC(CC1)C(C)(C)O2
inactive: [1] | [7] | [4] | [5] | [6]

c1cnccn1
inactive: [1] | [7] | [4] | [5] | [6]

C=CC(C)(O)CCC=C(C)C (stereo not drawn)
inactive: [1] | [7] | [4] | [5] | [6]

COC(=O)c1ccccc1O
inactive: [1] | [7] | [4] | [5] | [6]

CC(C)CC(=O)O
inactive: [1] | [7] | [4] | [5] | [6]

CCCCCCCC=O
inactive: [1] | [7] | [2] | [3] | [4] | [5] | [6]

CCCCCOC(C)=O
inactive: [1] | [7] | [4] | [5] | [6]

c1ccc(Oc2ccccc2)cc1
inactive: [1] | [4] | [5] | [6]

CCCCCCCOC(C)=O
inactive: [1] | [4] | [5] | [6]

CCCCCCCCCC=O
inactive: [1] | [7] | [2] | [4] | [5] | [6]
active: [3]

CC(=O)OC(C)(C)C1CC=C(C)CC1 (stereo not drawn)
inactive: [1] | [4] | [5] | [6]

CC1COCc2cc3c(cc21)C(C)(C)C(C)C3(C)C (stereo not drawn)
inactive: [7] | [5] | [6]
active: [1] | [4]

COc1ccccc1O
inactive: [1] | [7] | [4] | [5] | [6]

C=CCc1ccc(OC)c(OC)c1
active: [8] | [9] | [10] | [11] | [12]
not listed: [3]
inactive: all other assays above

CC(C)C=O
inactive: [1] | [7] | [4] | [5] | [6]
